For at least one entry, the source does not settle the construct or the ends of the probe. Weaker means in comparison with the reference protein, sequence or condition of that experiment.
Test system: Mex67 (full length):Mtr2 + Mtr2
Assay: fluorescence anisotropy
Conditions: 20 mM Tris pH 8.0, 50 mM NaCl, 10 nM DY-547 RNA; temperature not stated; recombinant protein; protein details: His6 removed by TEV

Row | Sequence | binding result
1 | UUUUUUUUUUUUUUU [U15] | binds more weakly
2 | CCCCCCCCCCCCCCC [C15] | binds more weakly

From article PMC4330389, “Domain organization within the nuclear export factor Mex67:Mtr2 generates an extended mRNA binding surface”
